Reference: article PMC7819943, “Rice protein-binding microarrays: a tool to detect cis-acting elements near promoter regions in rice”
The other results are listed elsewhere or left out.

Protein sequences, listed by entry. Tags and fused reporters are not part of them.
UniProt Q0JBA9, entry or part of it: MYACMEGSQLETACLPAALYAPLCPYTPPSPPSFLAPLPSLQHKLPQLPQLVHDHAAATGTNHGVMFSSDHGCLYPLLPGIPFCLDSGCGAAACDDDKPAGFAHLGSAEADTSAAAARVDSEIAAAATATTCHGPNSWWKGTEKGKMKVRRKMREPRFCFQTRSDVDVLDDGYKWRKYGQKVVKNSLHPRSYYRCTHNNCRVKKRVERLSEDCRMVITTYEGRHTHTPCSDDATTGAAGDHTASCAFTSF

biological target: OsWRKY34 (Oryza sativa, UniProt Q0JBA9 1-250); assay: protein-binding microarray (RPBM); PBS, 2% BSA, 51.3 ng/ul salmon testes DNA, 50 uM zinc acetate, 200 nM TF, 25 C, 1 h; high values mean tight binding; conditions: protein: recombinant; tags: N-terminal polyhistidine and DsRed monomer fusion (pET32a); label: CyDye5-dUTP incorporated in the synthesized complementary strand; 3' TTTTT single-stranded linker to array surface; dsDNA, one strand shown
Outline: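 Binding signal is defined as the fluorescence intensity of each feature in arbitrary units, read on an Axon 4000B scanner. Transcription factors with N-terminal polyhistidine and DsRed fusions came from E. coli BL21-CodonPlus and were purified on Ni–NTA. They were incubated at 200 nM for 1 h at 25 °C on a custom Agilent array that had been made double-stranded with Cy5-dUTP, with 50 µM zinc acetate present, and the array was washed.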

**Q.** For “TATACTCTGGTCGTCTCTCGCCAGCTCTGCTCTTCGAGATCGGAGTCACCTAGTGCAG”, which binding signal is on record?
**A.** Its binding signal is 8330 fluorescence intensity (a.u.).

**Q.** For “ATTTACTCACTCAACTCATTTCCCTGATCGTATTGAATCCCGGAGTCACCTAGTGCAG”, which binding signal is on record?
**A.** Its binding signal is 9740 fluorescence intensity (a.u.).

**Q.** For “GATCCATCTTCTTTGTAACATTTCTTATCTTTCATGTAATCGGAGTCACCTAGTGCAG”, which binding signal is on record?
**A.** The binding signal was 8550 fluorescence intensity (a.u.).

**Q.** Which binding signal does the source give for “AATTTTCTGCTTCTGTCTGACCTGTTCCATGGATAAAATTCGGAGTCACCTAGTGCAG” here?
**A.** Its binding signal is 10600 fluorescence intensity (a.u.).

**Q.** With “ACCGTTCCTCCTATTGTTCAATGGCGAGTCTTTTACTACTCGGAGTCACCTAGTGCAG” as the sequence, how does the binding signal read?
**A.** The binding signal was 8120 fluorescence intensity (a.u.).

**Q.** How did the binding signal turn out when “ATCATCATATTATTATTACGGTTCTCAATACAAATTGCAACGGAGTCACCTAGTGCAG” was run?
**A.** Its binding signal is 8720 fluorescence intensity (a.u.).

**Q.** Which binding signal does the source give for “GAAAACCCCTTACGACATCCGGTCAAACTTCCGATGTGACCGGAGTCACCTAGTGCAG” here?
**A.** Its binding signal is 8260 fluorescence intensity (a.u.).

**Q.** For “TGGCTGCAATTTTCACCATATCATCAAAAGTTGGTTTAGGCGGAGTCACCTAGTGCAG”, which binding signal is on record?
**A.** The binding signal was 9520 fluorescence intensity (a.u.).

**Q.** “ACGCGTTGTGAGCGTCTACATGTAGCATGTTTTTTTTTTACGGAGTCACCTAGTGCAG” was tested. Which binding signal did it give?
**A.** The binding signal was 10200 fluorescence intensity (a.u.).

**Q.** How did the binding signal turn out when “CACCGTGCCTGCCGCCGGCGACTTGACGAGTCCGACCACTCGGAGTCACCTAGTGCAG” was run?
**A.** The binding signal was 8300 fluorescence intensity (a.u.).

**Q.** How did the binding signal turn out when “CCGCCGCCGCCTCCGCCTGAAGTGTGGGCCCATCTCGTACCGGAGTCACCTAGTGCAG” was run?
**A.** The binding signal was 8320 fluorescence intensity (a.u.).

**Q.** Which binding signal does the source give for “TGTTTAAGTTTGGTGATTTCAATTCTGACCTGTAAATTGTCGGAGTCACCTAGTGCAG” here?
**A.** Its binding signal is 8060 fluorescence intensity (a.u.).

**Q.** Which binding signal does the source give for “TTGTGTGTGTGTATCCCCTGTGACACAGTCGTAATCGATGCGGAGTCACCTAGTGCAG” here?
**A.** Its binding signal is 10800 fluorescence intensity (a.u.).

**Q.** For “CTACGTCGCCTTGCTCTTGCCCTCCTCTTATCCTGCGCCGCGGAGTCACCTAGTGCAG”, which binding signal is on record?
**A.** The binding signal was 8060 fluorescence intensity (a.u.).

**Q.** “GATCTCCATCTCCATCTCTCTCTCTCTCTCGAGCAGAGCACGGAGTCACCTAGTGCAG” was tested. Which binding signal did it give?
**A.** Its binding signal is 8360 fluorescence intensity (a.u.).

**Q.** Which binding signal does the source give for “ACCAACAACTACTAATGTCAACGTCTCACATTATACAACTCGGAGTCACCTAGTGCAG” here?
**A.** Its binding signal is 9030 fluorescence intensity (a.u.).

**Q.** With “CCTAATATTGTGTGCAGAACCATCGCCTTGGATCATCCTTCGGAGTCACCTAGTGCAG” as the sequence, how does the binding signal read?
**A.** The binding signal was 8580 fluorescence intensity (a.u.).

**Q.** For “CGATTGCCAGTTTGCCACCCATCTCACCAGACCACAATTCCGGAGTCACCTAGTGCAG”, which binding signal is on record?
**A.** Its binding signal is 13000 fluorescence intensity (a.u.).

**Q.** With “CCATTAGATGATAAAATTTTACCTGCTTTTGTAGCTTCTACGGAGTCACCTAGTGCAG” as the sequence, how does the binding signal read?
**A.** The binding signal was 8310 fluorescence intensity (a.u.).

**Q.** “ATTTCGCCATTGCACCACACCATTTGCATTGCACCAAGAGCGGAGTCACCTAGTGCAG” was tested. Which binding signal did it give?
**A.** Its binding signal is 11300 fluorescence intensity (a.u.).

**Q.** With “GTCTAATGAAGTTACCTCTTTCATAAACTTTTGTTTATTTCGGAGTCACCTAGTGCAG” as the sequence, how does the binding signal read?
**A.** Its binding signal is 8060 fluorescence intensity (a.u.).

**Q.** “ACAAACTTCTAACTTTTTCGTCGCATCGTTCCAATTTCAACGGAGTCACCTAGTGCAG” was tested. Which binding signal did it give?
**A.** Its binding signal is 9680 fluorescence intensity (a.u.).

**Q.** “TATCCTGTTACTTTTGCTTGACCTGATGTAATGGACGTAGCGGAGTCACCTAGTGCAG” was tested. Which binding signal did it give?
**A.** The binding signal was 8840 fluorescence intensity (a.u.).

**Q.** How did the binding signal turn out when “GTATTCCTGGCGTGGTTGAGTCAGTGTGTGTGTGTCGTGCCGGAGTCACCTAGTGCAG” was run?
**A.** Its binding signal is 8500 fluorescence intensity (a.u.).

**Q.** How did the binding signal turn out when “TGTGGCTGTGTTGTGCGACTACCTTGGTCCTTCCTGATTACGGAGTCACCTAGTGCAG” was run?
**A.** The binding signal was 8400 fluorescence intensity (a.u.).

**Q.** How did the binding signal turn out when “CTAACGCGCTCGCTTCCTTCCCGCCTCGCCTCAACGCAAACGGAGTCACCTAGTGCAG” was run?
**A.** The binding signal was 9770 fluorescence intensity (a.u.).

**Q.** With “AGCACATAGCTAGTTAGCCACATATTATTTGATCACTAAACGGAGTCACCTAGTGCAG” as the sequence, how does the binding signal read?
**A.** Its binding signal is 8980 fluorescence intensity (a.u.).

**Q.** For “GATAATTCTTATGTTACTGACTAATATGATAGTACTGAGTCGGAGTCACCTAGTGCAG”, which binding signal is on record?
**A.** The binding signal was 8140 fluorescence intensity (a.u.).

**Q.** For “TATATTTTGTCATTCTCTCTAAATGTTTTTGATGATTTTCCGGAGTCACCTAGTGCAG”, which binding signal is on record?
**A.** Its binding signal is 10600 fluorescence intensity (a.u.).

**Q.** With “CTTTCTTTCACGTGATGACTTTTTGGTTGGACTTTCCACCCGGAGTCACCTAGTGCAG” as the sequence, how does the binding signal read?
**A.** Its binding signal is 8740 fluorescence intensity (a.u.).

**Q.** With “GTAGCTCTGTTGTTCGGTTGTTCTGCTCAATGGCCGCTCGCGGAGTCACCTAGTGCAG” as the sequence, how does the binding signal read?
**A.** The binding signal was 8050 fluorescence intensity (a.u.).

**Q.** How did the binding signal turn out when “AATGGGCTAATGGGCCTCCAAATTGTATTATATGGGCTTTCGGAGTCACCTAGTGCAG” was run?
**A.** Its binding signal is 8220 fluorescence intensity (a.u.).

**Q.** For “TAAACACATCCATCCCTTATGTCCAAAGCATCACTACACACGGAGTCACCTAGTGCAG”, which binding signal is on record?
**A.** Its binding signal is 8440 fluorescence intensity (a.u.).

**Q.** Which binding signal does the source give for “ACCTCAGACAACCGCCGATGCCCCTGATTTCCGATTTGTTCGGAGTCACCTAGTGCAG” here?
**A.** Its binding signal is 11400 fluorescence intensity (a.u.).

**Q.** For “TGAACGCTTCCCTGTGTTTGTGGTTACTGCCTTACTGGTTCGGAGTCACCTAGTGCAG”, which binding signal is on record?
**A.** The binding signal was 9210 fluorescence intensity (a.u.).

**Q.** With “ATTACGGCGTCTCCTCGCCCACAGGTTGCCGCTGCAGTTTCGGAGTCACCTAGTGCAG” as the sequence, how does the binding signal read?
**A.** The binding signal was 9430 fluorescence intensity (a.u.).

**Q.** “AGCCTTGTGTGTGTTTTGCGCTCGCGGCCGCCGCTATTTTCGGAGTCACCTAGTGCAG” was tested. Which binding signal did it give?
**A.** Its binding signal is 9270 fluorescence intensity (a.u.).

**Q.** Which binding signal does the source give for “CCACTTTTTTTTTCTTTTTCTTCGGTTTTTCTCTTCATCACGGAGTCACCTAGTGCAG” here?
**A.** Its binding signal is 9040 fluorescence intensity (a.u.).

**Q.** How did the binding signal turn out when “TTCAGTCATTTTTCATCACATCAATCTATCATACACACACCGGAGTCACCTAGTGCAG” was run?
**A.** Its binding signal is 8180 fluorescence intensity (a.u.).

**Q.** For “CCTGCCAATCCCGCCACGTTCTTGCGGCCCAGCCATCCATCGGAGTCACCTAGTGCAG”, which binding signal is on record?
**A.** Its binding signal is 8300 fluorescence intensity (a.u.).

**Q.** “TTTTATTGTTGGGTGTGTTTAATTTTATTTGAACTTCACTCGGAGTCACCTAGTGCAG” was tested. Which binding signal did it give?
**A.** The binding signal was 8360 fluorescence intensity (a.u.).

**Q.** “TGTAGTGTTATTTGTCCCACCCATCACTGCACACCTCATTCGGAGTCACCTAGTGCAG” was tested. Which binding signal did it give?
**A.** Its binding signal is 8610 fluorescence intensity (a.u.).
